Consider 1 compound from article PMC6390652 (Toxicological Sciences, 2018).

Usually IC50 stands for the concentration at which inhibition is half-maximal.

The assay concerns human GI microtissue. The experiment in a line: MTT viability assay. Particulars: Caco-2, read-out: MTT IC50. Type of assay: cell-based. A general note: Tetrazolium dyes change colour on reduction, which living cells bring about.

As for `CNC(=O)c1ccccc1Sc1ccc2c(/C=C/c3ccccn3)n[nH]c2c1` [Axitinib], the IC50 is greater than 100 µM.
